Data from paper PMC5008331.
For at least one entry, the source does not settle the construct or the ends of the probe.

Sequences of proteins named here, by UniProt entry; tags and fusion partners are left off. A change or cut given only in a name is not applied to a line headed by its entry.
UniProt P14404: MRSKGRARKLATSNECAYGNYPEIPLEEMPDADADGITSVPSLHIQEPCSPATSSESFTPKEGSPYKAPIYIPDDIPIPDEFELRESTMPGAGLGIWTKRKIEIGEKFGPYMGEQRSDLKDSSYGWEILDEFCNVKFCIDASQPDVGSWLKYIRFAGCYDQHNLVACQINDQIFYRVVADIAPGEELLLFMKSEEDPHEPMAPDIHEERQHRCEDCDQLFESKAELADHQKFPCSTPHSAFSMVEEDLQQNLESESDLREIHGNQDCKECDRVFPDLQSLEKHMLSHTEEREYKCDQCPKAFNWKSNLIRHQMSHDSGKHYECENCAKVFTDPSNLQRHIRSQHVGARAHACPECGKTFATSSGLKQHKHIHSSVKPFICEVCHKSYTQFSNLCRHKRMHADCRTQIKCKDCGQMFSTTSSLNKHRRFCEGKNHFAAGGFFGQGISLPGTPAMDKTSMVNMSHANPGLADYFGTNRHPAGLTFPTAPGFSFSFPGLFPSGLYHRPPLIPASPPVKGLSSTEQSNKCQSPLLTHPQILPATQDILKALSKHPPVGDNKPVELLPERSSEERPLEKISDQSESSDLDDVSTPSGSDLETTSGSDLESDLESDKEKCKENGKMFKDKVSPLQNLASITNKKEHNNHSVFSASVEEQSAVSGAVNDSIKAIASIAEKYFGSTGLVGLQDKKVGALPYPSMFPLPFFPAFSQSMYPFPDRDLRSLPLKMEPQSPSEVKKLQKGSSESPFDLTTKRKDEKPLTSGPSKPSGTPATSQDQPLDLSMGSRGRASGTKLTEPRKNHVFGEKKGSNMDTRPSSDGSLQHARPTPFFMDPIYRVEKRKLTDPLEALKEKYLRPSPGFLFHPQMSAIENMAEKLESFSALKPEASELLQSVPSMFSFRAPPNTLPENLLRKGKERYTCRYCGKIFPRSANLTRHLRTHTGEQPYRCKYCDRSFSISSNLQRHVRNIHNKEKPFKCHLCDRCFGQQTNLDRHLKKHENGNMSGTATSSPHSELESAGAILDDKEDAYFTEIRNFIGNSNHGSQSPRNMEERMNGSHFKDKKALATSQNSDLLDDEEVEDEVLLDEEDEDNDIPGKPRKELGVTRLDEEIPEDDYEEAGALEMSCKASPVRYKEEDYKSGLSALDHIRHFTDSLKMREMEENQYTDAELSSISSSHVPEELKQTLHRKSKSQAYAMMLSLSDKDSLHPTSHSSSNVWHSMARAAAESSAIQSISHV

How the values were obtained:
[1] = biological target: Evi1 (recombinant, Cusabio) (UniProt P14404); assay: competition with a labelled probe; details: 100-fold molar excess unlabeled WT probe reduced complex; LightShift Chemiluminescent EMSA Kit per manual; buffer composition, pH and temperature not stated; nondenaturing PAGE; commercial protein
[2] = biological target: Evi1 (recombinant, Cusabio) (UniProt P14404); assay: EMSA; details: LightShift Chemiluminescent EMSA Kit per manual; buffer composition, pH and temperature not stated; nondenaturing PAGE; commercial protein

Sequence: AAGGAAAGAATAGAATAGAACGGC (double strand) [AK015487 promoter EMSA probe (WT)]
- binding result [1]: binds
- binding result [2]: binds
